Test results from patent US20090036380A1, “Composition And Method For Brain Tumor Therapy” (Yeda Research and Development Co., Ltd., priority 2006, published 2009).
No constants are given. Whether binding was seen depends on the method and setting. Some entries that bind do so weakly or less than the wild type. Blank lines part the entries; values can stand above or below the binder they belong to.

Key:
[1] = biological target: full length Karet protein (RRS bait) (mouse) (UniProt Q8K2Y9); test: RRS screen in yeast, whole Karet protein against an embryonic mouse brain library
[2] = biological target: T1, Karet PTB domain (RRS bait) (mouse) (UniProt Q8K2Y9); test: RRS screen in yeast, Karet PTB domain against an embryonic mouse brain library
T1 sequence: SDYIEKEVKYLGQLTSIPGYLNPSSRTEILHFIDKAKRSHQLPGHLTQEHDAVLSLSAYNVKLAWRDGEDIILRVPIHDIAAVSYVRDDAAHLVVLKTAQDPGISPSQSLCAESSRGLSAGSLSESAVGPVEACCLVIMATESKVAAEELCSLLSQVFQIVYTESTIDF

B1: Myeloid leukemia factor 2 (Mlf2), transcript variant1, mRNA (protein, mouse, UniProt Q99KX1 1-247, looked up)
chain: MFRFMRDVEPEDPMFLMDPFAIHRQHMSRMLSGGFGYSPFLSITDGNMPATRPASRRMQAGAVSPFGMLGMSGGFMDMFGMMNDMIGNMEHMAAGGNCQTFSSSTVISYSNTGDGAPKVYQETSEMRSAPGGIRETRRTVRDSDSGLEQMSIGHHIRDRAHILQRSRNHRTGDQEERQDYINLDESEAAAFDDEWRRETSRYRQQRPLEFRRHEASVGGGRRAEGPPRLAIQGPEDSPSRQSRRYDW
binding [1]: binds

B3: Granulin (Grn) (protein, mouse, UniProt P28798 18-589, looked up)
chain: TQCPDGQFCPVACCLDQGGANYSCCNPLLDTWPRITSHHLDGSCQTHGHCPAGYSCLLTVSGTSSCCPFSKGVSCGDGYHCCPQGFHCSADGKSCFQMSDNPLGAVQCPGSQFECPDSATCCIMVDGSWGCCPMPQASCCEDRVHCCPHGASCDLVHTRCVSPTGTHTLLKKFPAQKTNRAVSLPFSVVCPDAKTQCPDDSTCCELPTGKYGCCPMPNAICCSDHLHCCPQDTVCDLIQSKCLSKNYTTDLLTKLPGYPVKEVKCDMEVSCPEGYTCCRLNTGAWGCCPFAKAVCCEDHIHCCPAGFQCHTEKGTCEMGILQVPWMKKVIAPLRLPDPQILKSDTPCDDFTRCPTNNTCCKLNSGDWGCCPIPEAVCCSDNQHCCPQGFTCLAQGYCQKGDTMVAGLEKIPARQTTPLQIGDIGCDQHTSCPVGQTCCPSLKGSWACCQLPHAVCCEDRQHCCPAGYTCNVKARTCEKDVDFIQPPVLLTLGPKVGNVECGEGHFCHDNQTCCKDSAGVWACCPYLKGVCCRDGRHCCPGGFHCSARGTKCLRKKIPRWDMFLRDPVPRPLL
binding [2]: binds

Other lines, results leading:

binding [2]: binds
B2: Stathmin-like 3, mRNA (protein, mouse, UniProt O70166 1-180, looked up)
chain: MASTVSAYKEKMKELSVLSLICSCFYSQPHPNTIYQYGDMEVKQLDKRASGQSFEVILKSPSDLSPESPVLSSPPKRKDASLEELQKRLEAAEERRKTQEAQVLKQLAERREHEREVLHKALEENNNFSRLAEEKLNYKMELSKEIREAHLAALRERLREKELHAAEVRRNKEQREEMSG

binding [2]: binds
B4: Prothymosin alpha (protein, mouse, UniProt P26350 1-111, looked up)
chain: MSDAAVDTSSEITTKDLKEKKEVVEEAENGRDAPANGNAQNEENGEQEADNEVDEEEEEGGEEEEEEEEGDGEEEDGDEDEEAEAPTGKRVAEDDEDDDVDTKKQKTEEDD
